# PubChem BioAssay AID493014 (National Center for Advancing Translational Sciences (NCATS), 2011)
# Values joined by “and” are separate entries in the source; they are usually repeats but may differ in a detail not shown here. Identical values can stand only once. Some of the results follow. Further columns of the screen follow, without active or inactive calls. Most of these compounds were active or inconclusive in the main read-out, so they are no random draw. Words in brackets tell the shape of the fitted curve; partial curves, single points and poor fits give uncertain potencies.
# Experiment: qHTS Assay to Find Inhibitors of Chronic Active B-Cell Receptor Signaling
# Settings: ABC-DLBCL IkBa-CBG/CBR reporter, luminescence ratio (green luciferase fused to IkBa over red control in TMD8 lymphoma cells), 4 h
# Outline: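 Doxycycline induced both beetle luciferases in TMD8 lymphoma cells; IKK-driven degradation limits the IkappaBalpha-fused green signal, while red luminescence normalises for cell number and nonspecific effects. Compounds tested up to 46 uM, 4 hrs.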
# [1] = measured here: CBR red luminescence, cell number
# [2] = measured here: IkBa-CBG green luminescence
SMILES,AC50 [1],AC50 [2]
Cc1ccc(NC(=S)NC(NC(=O)c2ccccc2C)C(Cl)(Cl)Cl)c(C)c1 (stereo not drawn),"2.51 µM [falling, full curve, poor fit]",
COC(=O)/C=C/S(=O)(=O)c1ccc(NC(C)=O)cc1,"7.08 µM [falling, partial curve]",
CC(C)(O)CCC(C)(C)O,"6.51 µM [falling, single point]",
CCN(CC)C(=O)COc1ccc(/C(C)=N/NC(=O)c2ccccc2O)cc1,"3.55 µM [falling, full curve]",
N=c1c2c(ncn1CCCO)Oc1ccc3ccccc3c1C2c1ccccc1 (stereo not drawn),"17.8 µM [falling, single point]",
Cc1ccc(CCC(=O)Nc2ncc(Cc3cc(Cl)ccc3Cl)s2)o1,"20.6 µM [rising, partial curve]","5.8 µM [falling, full curve]"
O=C(C1CCCN1S(=O)(=O)c1ccc(Cl)cc1)N1CCOCC1 (stereo not drawn),"16.4 µM [rising, single point]",
CC(=O)N1C(=O)N(C)C2C1N(C(C)=O)C(=O)N2C (stereo not drawn),"29.1 µM [rising, single point]",
COc1ccc(CNc2ccc(Br)cc2)cc1,"1.26 µM [rising, full curve, poor fit]",
C/C(=N/Nc1nc(-c2ccccc2)cc(-c2ccc(F)cc2)n1)c1cccc(N)c1,"3.66 µM [falling, full curve]",
N#CC1=C(N)NC(SCc2ccc(F)cc2)=C(C#N)C12CCCCC2,"23.1 µM [falling, single point]",
O=C(Nc1ccccc1C(F)(F)F)N1CCC(n2c(=O)[nH]c3ccccc32)CC1,"6.51 µM [rising, single point]",
O=C(Nc1ccccc1Cl)N1CCSc2ccccc21,"3.98 µM [rising, full curve, poor fit]",
O=C(N/N=C/c1ccc([N+](=O)[O-])cc1)c1ccccc1OCc1ccccc1,"1.12 µM [falling, partial curve, poor fit]",
COc1ccc(N=N/C(=C\O)C(=O)c2cccs2)cc1,"6.31 µM [rising, partial curve]","11.2 µM [falling, partial curve, poor fit]"
O=C(Nc1cccc(Cl)c1)N(Cc1nc2ccccc2c(=O)[nH]1)C1CCCC1,"12.6 µM [rising, partial curve, poor fit]",

SMILES,AC50 [1],AC50 [2]
O=C(NNC(=O)c1cc(C(F)(F)F)cc(C(F)(F)F)c1)c1ccc(Cl)cc1,"6.31 µM [rising, single point]",
COC(=O)Cn1c(=NC(=O)c2ccc(S(=O)(=O)N3CCOCC3)cc2)sc2cc(S(N)(=O)=O)ccc21,"2.51 µM [rising, full curve, poor fit]",
Cc1ccc(C(c2nnnn2Cc2ccccc2)N2CCN(Cc3ccccc3)CC2)cc1 (stereo not drawn),"13 µM [falling, single point]",
Cn1cc(/C=C(\C#N)C(=O)Nc2ccccc2O)c2ccccc21,"2.24 µM [falling, partial curve, poor fit]",
CC[C@]12c3[nH]c4cc(-c5ccco5)ccc4c3CCN1C(=O)[C@@H](CC(=O)NCCC1=CCCCC1)C[C@@H]2C(=O)N1CCN(C(=O)c2ccco2)CC1,"0.731 µM [rising, full curve, poor fit]",
CN(C)S(=O)(=O)NCCNC(=O)c1cc(OCC(F)(F)F)ccc1OCC(F)(F)F,"28.2 µM [rising, single point]",
O=C(Nc1ccc(F)cc1)c1cccc2c1C(=O)N(CC1CCCO1)C2 (stereo not drawn),,"3.55 µM [rising, partial curve, poor fit]"
O=C(CSc1nnc(-c2ccco2)o1)c1ccc[nH]1,"10 µM [falling, partial curve]",
O=C(O)c1ccccc1CSC1=NCCS1,"2 µM [rising, partial curve, poor fit]",
O=C(NCc1ccc(F)cc1)C(=O)c1cn(CC(=O)N2CCCC2)c2ccccc12,"6.31 µM [falling, full curve, poor fit]",
C=CCSc1nc(C)c(CCC(C)C)c(=O)[nH]1,"35.5 µM [rising, partial curve, poor fit]",
C/C(=N\NC(=O)c1ccccn1)c1ccc(C(=O)O)s1,"3.98 µM [falling, full curve]",
COc1ccc(C(=O)c2sc(Nc3ccccc3)nc2N)cc1,"3.55 µM [falling, partial curve] and 10 µM [falling, partial curve, poor fit]",
O=C(Cc1ccccc1)NC(=S)Nc1ccc(N2CCCCC2)cc1,"0.184 µM [rising, full curve]",
CCN(CC)c1ccc(/C=N/Nc2ccccc2)c(O)c1,"14.1 µM [rising, partial curve, poor fit]",
